Drawing on US20040248255A1, this text covers binding for four molecules.

The chains behind the UniProt entries cited, without tags or fusion partners.
UniProt P25090: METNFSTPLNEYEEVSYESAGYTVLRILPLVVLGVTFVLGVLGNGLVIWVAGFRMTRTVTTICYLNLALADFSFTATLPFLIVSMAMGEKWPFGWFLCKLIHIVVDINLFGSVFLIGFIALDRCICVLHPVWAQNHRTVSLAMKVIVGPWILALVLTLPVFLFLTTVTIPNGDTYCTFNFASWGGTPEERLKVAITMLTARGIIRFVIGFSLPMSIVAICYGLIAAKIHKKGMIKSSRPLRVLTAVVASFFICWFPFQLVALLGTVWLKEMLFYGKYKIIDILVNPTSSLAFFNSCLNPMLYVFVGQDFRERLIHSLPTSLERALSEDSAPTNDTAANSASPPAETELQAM

Assay [1] addresses formyl peptide receptor like 1 (FPRL1) (UniProt P25090). Nature of the assay: inferred from [Ca2+]i increase in FPRL1-expressing RBL-2H3 cells (fura-2); no direct binding assay.
For assay [2] the target is unchanged. Nature of the assay: inferred from [Ca2+]i increase in FPRL1-expressing RBL-2H3 cells and HL60 cells; no direct binding assay.

No constants are given. Whether binding was seen depends on the method and setting. Some entries that bind do so weakly or less than the wild type.

B1: P18 (RKYYYM-NH2) (peptide)
peptide: RKYYYM
modifications: C-terminal amide (-NH2)
For the molecule B1, the binding result in assay [1] and in assay [2] was “binds” throughout.

B2: P24 (MKYYYM-NH2) (peptide)
peptide: MKYYYM
modifications: C-terminal amide (-NH2)
As for B2, the binding result in assay [1] and in assay [2] was “binds” throughout.

B3: P14 (RKYHVM-NH2) (peptide)
peptide: RKYHVM
modifications: C-terminal amide (-NH2)
Turning to B3, the binding result in assay [1] and in assay [2] was “binds” throughout.

B4: P21 (MKYYKM-NH2) (peptide)
peptide: MKYYKM
modifications: C-terminal amide (-NH2)
B4: the binding entry in assay [1] and in assay [2] was “binds” each time.
